In PubChem BioAssay AID901 (National Center for Advancing Translational Sciences (NCATS), 2007):
This is one part of the list. These are further read-outs of the screen, such as a control signal, another cell line or another target. No call is given for them. Compounds called inactive in the main read-out are mostly missing here. Words in brackets tell the shape of the fitted curve; partial curves, single points and poor fits give uncertain potencies.

Assay: qHTS Assay for Identifying the Cell-Membrane Permeable IMPase Inhibitors
Conditions: CHO-M1 cells, IP1 accumulation, HTRF TR-FRET ratio; measured here: donor channel 620 nm AC50

SMILES	AC50
CCN(CC)c1ccc(NC(=O)c2cnn3c(C(F)F)cc(-c4ccccc4)nc23)cc1	4470 nM [rising, single point]
CCOC(=O)c1cnn(-c2ccccc2)c1NC(=O)c1ccccc1C	126 nM [falling, single point]
CCOc1ccc(C2CC(c3ccccc3C)n3nc(N)nc3N2)cc1 (configuration not stated)	12.6 nM [falling, full curve, poor fit]
COc1ccc(NC(=S)NN2CCOCC2)cc1OC	5.01 nM [falling, full curve, poor fit]
CCOC(=O)Nc1ccc2c(c1)N(C(=O)CN(CC)CC)c1ccccc1C=C2	3550 nM [rising, partial curve, poor fit]
O=C1c2ccccc2C(=O)c2c1ccc(O)c2O	15800 nM [falling, partial curve]
CC(=O)c1cccc(NC(=O)c2oc(C)nc2C)c1	251 nM [falling, partial curve, poor fit]
O=C(NCCN1CCCCC1)c1c(O)c2ccccc2[nH]c1=O	63.1 nM [rising, full curve, poor fit]
CC(C)(C)C(=O)c1cnc(Nc2ccccc2Cl)s1	3160 nM [rising, single point]
CCCCN1C(=O)C2C3C=CC(C2C1=O)C1C2C(=O)N(CCCC)C(=O)C2C31 (configuration not stated)	10 nM [rising, full curve, poor fit]
Cc1cc2ccccc2n1CCNC(=O)C1CCCC1	25.1 nM [falling, full curve, poor fit]
O=C(CCCn1nnc(-c2cccnc2)n1)c1ccc(F)cc1	2510 nM [falling, partial curve, poor fit]
CC(=O)c1ccc(NC(=O)COC(=O)c2ccccc2Sc2ccccc2C#N)cc1	4.47 nM [falling, full curve, poor fit]
O=C(c1cc2ccccc2oc1=O)N(Cc1cccs1)Cc1ccccc1Cl	5010 nM [falling, single point]
CC1(C)N=C(c2cccc(F)c2)C(=O)N1	15.8 nM [rising, full curve, poor fit]
O=C(OCn1ncc(Br)c(Br)c1=O)c1ccc(F)cc1	31600 nM [rising, single point]
Cc1ccc(C(=O)Nc2ccc(-c3nc4ccccc4o3)cc2)cc1Cl	22400 nM [rising, partial curve]
COc1ccc(C)c2sc(=NC(=O)c3ccccc3)n(C)c12	35500 nM [rising, single point]
CCn1c(CCNC(=O)c2ccc(OC)c(OC)c2)nc2ccccc21	398 nM [rising, partial curve, poor fit]
Oc1ccc(-c2cn3c(n2)SCC3)cc1O	12600 nM [falling, single point]
CCC(c1nnc(SCC(=O)Nc2ccc(C(=O)Nc3ccccc3OC)cc2)o1)N(C)C (configuration not stated)	1260 nM [falling, single point]
O=C(CSc1ccccn1)N/N=C/C=C/c1ccccc1	20000 nM [falling, single point]
c1ccc(-n2c(-c3cccs3)nc3nc4ccccc4nc32)cc1	5620 nM [rising, single point]

SMILES	AC50
CCn1nnc(-c2ccccc2NC(=O)C(F)(F)F)n1	1260 nM [falling, full curve]
Cc1ccccc1Nc1c(-c2c[nH]c3ccccc23)nc2cccc(C)n12	12600 nM [rising, partial curve, poor fit]
CC1CCCC(C)N1C(=O)COc1ccc(-c2nnco2)cc1 (configuration not stated)	20 nM [rising, partial curve, poor fit]
O=S(=O)(c1ccccc1)N1CCC(N2CCCCCC2)CC1	31600 nM [falling, single point]
O=C(O)C1C2C=CC(C3CC23)C1C(=O)N1CCc2ccccc21 (configuration not stated)	5010 nM [rising, full curve]
Cc1ccc(C)c(NC(=O)Cn2c(=O)n(CCCS(=O)(=O)C3CCCCC3)c(=O)c3ccccc32)c1	89.1 nM [falling, single point]
C/C(=N\NS(=O)(=O)c1ccc(Cl)c([N+](=O)[O-])c1)c1ccc(C)o1	7940 nM [falling, full curve]
COC(=O)c1ccc2c(=O)n(NC(C)=O)c(=S)[nH]c2c1	22.4 nM [falling, full curve, poor fit]
O=C(C1CCCCC1)N1CCN(C(=O)C2CCCCC2)CC1	1000 nM [rising, full curve, poor fit]
CCOC(=O)c1csc(NC(=O)c2ccc(OC)c(OC)c2)n1	15800 nM [rising, single point]
COCc1nnc(NC(=O)CC(C)C)s1	200 nM [rising, single point]
CC(=O)N1CCc2cc(S(=O)(=O)CCC(=O)O)ccc21	631 nM [rising, single point]
Cc1cccc(OCCCCc2c(C)n[nH]c2C)c1C	3160 nM [rising, single point]
O=C(CCC(=O)Nc1ccccc1)N/N=C/c1ccncc1	3160 nM [falling, single point]
COC(=O)c1ccc(Nc2nnc(-c3ccc(C)c(S(=O)(=O)N4CCN(C)CC4)c3)c3ccccc23)cc1	35500 nM [rising, single point]
O=C(NCC1CCCO1)NC1CCCCC1 (configuration not stated)	200 nM [falling, full curve]
CCOc1ccccc1NC(=O)CSc1nc(N)c(C#N)cc1C#N	31600 nM [rising, single point]
COc1ccc(-c2c3c(=O)n(C)c(=O)n(C)c3cn2-c2cccc(OC)c2)cc1	22400 nM [falling, single point]
COC(=O)c1cccc(-n2c(CCC(=O)O)ccc2-c2ccc(OC)cc2)c1	31600 nM [rising, single point]
CCCCNC(=O)N1CCOCCOCCN(C(=O)NCCCC)CCOCCOCC1	3980 nM [rising, single point]
CCC(Sc1nc2ccccc2[nH]1)C(=O)Nc1cc(C)on1 (configuration not stated)	501 nM [falling, single point]
Cn1c(CN2CCN(c3cccc(Cl)c3)CC2)nc2ccccc21	3160 nM [falling, partial curve]
CCOC(=O)c1c(-c2ccc(Br)cc2)csc1NC(=O)c1ccccc1F	224 nM [falling, full curve]

Structural class: the compounds so far containing a COOH group.
SMILES	AC50
O=C(O)C1C2C=CC(C3CC23)C1C(=O)N1CCc2ccccc21 (configuration not stated)	5010 nM [rising, full curve]
CC(=O)N1CCc2cc(S(=O)(=O)CCC(=O)O)ccc21	631 nM [rising, single point]
COC(=O)c1cccc(-n2c(CCC(=O)O)ccc2-c2ccc(OC)cc2)c1	31600 nM [rising, single point]

The list goes on.

SMILES	AC50
COC(=O)c1ccccc1NC(=O)c1ccc(COc2ccccc2Cl)o1	4.47 nM [rising, full curve, poor fit]
COC(=O)C1(Cc2ccccc2)NC(c2ccccc2C)C2C(=O)N(c3ccc4c(c3)OCO4)C(=O)C21 (configuration not stated)	126 nM [rising, single point]
Cc1cccc(N(CC(=O)NC2CCCCC2)C(=O)CCCC(=O)Nc2ccccn2)c1	631 nM [rising, partial curve, poor fit]
Cc1cc(=O)[nH]c(SCCOc2ccc3c(c2)CCC3)n1	12600 nM [rising, single point]
Cc1ccc(-n2c(SCC(=O)Nc3ccc4c(c3)OCO4)nnc2-c2ccoc2C)cc1	39.8 nM [rising, full curve, poor fit]
CCc1ccccc1-n1c(SCC(=O)Nc2ccc3c(c2)OCCO3)nc2[nH]ncc2c1=O	15.8 nM [falling, full curve]
CSc1ccccc1NC(=O)CSc1nnnn1-c1ccccc1SC	31600 nM [rising, single point]
CCN(CC)c1nc2n(c(=O)n1)CCO2	5.01 nM [falling, full curve, poor fit]
COC(=O)c1ccc(OCC(O)CN(CCO)CCO)cc1 (configuration not stated)	2000 nM [falling, partial curve, poor fit]
CC1(C)CC(=O)c2cc3c(nc2C1)CC(C)(C)CC3=O	28.2 nM [falling, full curve]
COc1cccc(NC(=O)CSc2ncnc3c2oc2ccccc23)c1	31600 nM [rising, single point]
O=c1c2[nH]c3cccc(Cl)c3c2ncn1CCN1CCCCC1	794 nM [falling, full curve]
CCOc1ccccc1NC(=O)c1c(NC(=O)c2ccccc2)sc2c1CCCC2	282 nM [falling, full curve]
Cc1ccc2c(c1)nnn2C1CCN(CC(=O)c2ccc(Cl)cc2)CC1	2820 nM [rising, single point]
CC(C)CCn1c(SCC#N)nc2c(sc3ccccc32)c1=O	25100 nM [rising, partial curve]
CCOC(=O)C1C(=O)OC2(CCOC(C)(C)C2)C1C(=O)OCC (configuration not stated)	251 nM [falling, partial curve, poor fit]
Cc1cc(NS(=O)(=O)c2ccc(NC(=O)CCCC(=O)O)cc2)nc(C)n1	158 nM [falling, partial curve]
CCn1cc(CNC(=O)c2cc(-c3ccc(C)c(C)c3)nc3ccccc23)c(C)n1	31600 nM [rising, single point]
O=C(COc1ccccc1Cl)NCCc1ccc2c(c1)OCCO2	5.62 nM [falling, full curve, poor fit]
COc1cccc(NC(=O)CSc2nc3ccccc3c(=O)n2CCCC(=O)N2CCCC2)c1	12.6 nM [rising, full curve, poor fit]
Cc1ccc(N2CC(C(=O)Nc3ccc(N(C)C)cc3)CC2=O)cc1C (configuration not stated)	5.01 nM [falling, full curve, poor fit]
